Results taken from PMC9224301.

Target: T1, Chl1-5xFlag (S. pombe) (UniProt O14147)
T1 sequence: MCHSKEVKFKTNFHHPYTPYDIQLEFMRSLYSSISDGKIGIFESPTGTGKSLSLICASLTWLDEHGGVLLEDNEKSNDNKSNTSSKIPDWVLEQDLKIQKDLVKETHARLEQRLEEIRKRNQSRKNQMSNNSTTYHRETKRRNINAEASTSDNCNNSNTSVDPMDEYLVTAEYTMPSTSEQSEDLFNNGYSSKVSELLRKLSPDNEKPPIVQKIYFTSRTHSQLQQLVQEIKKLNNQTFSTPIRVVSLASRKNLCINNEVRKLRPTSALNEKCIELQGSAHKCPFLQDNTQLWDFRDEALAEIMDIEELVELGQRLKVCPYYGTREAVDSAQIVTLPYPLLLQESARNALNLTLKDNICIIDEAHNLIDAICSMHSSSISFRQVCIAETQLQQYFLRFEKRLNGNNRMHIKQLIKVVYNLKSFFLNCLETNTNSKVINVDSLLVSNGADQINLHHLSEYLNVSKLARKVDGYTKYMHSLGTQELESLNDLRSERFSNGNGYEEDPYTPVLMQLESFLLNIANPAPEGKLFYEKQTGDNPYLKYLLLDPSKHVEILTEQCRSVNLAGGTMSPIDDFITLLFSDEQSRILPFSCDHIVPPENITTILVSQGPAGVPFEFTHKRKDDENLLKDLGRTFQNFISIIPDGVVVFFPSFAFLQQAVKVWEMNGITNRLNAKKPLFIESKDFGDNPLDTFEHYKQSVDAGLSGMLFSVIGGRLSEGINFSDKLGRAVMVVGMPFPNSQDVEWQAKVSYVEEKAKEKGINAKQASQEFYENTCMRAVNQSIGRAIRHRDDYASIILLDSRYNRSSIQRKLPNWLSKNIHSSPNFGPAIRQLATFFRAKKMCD
Assay: affinity purification with mass spectrometry; Chl1-Flag complex affinity purified from whole-cell extracts by Flag resin in 1x HC buffer (250 mM KCl), eluted with 3x Flag peptide, LC-MS/MS; untagged strain as comparison

- binding: binds
B1: Rpc37 subunit of RNA polymerase III (protein, UniProt O74883 1-242)
chain: MSFSEDQAMEEAKLRNDETEEQDPVVRTYPVFFSPGLRNNLLLNQFPLRPKNRTYSDANGEAPIDVRVKPKTGWMEVDVPIPTTKYYNEDKAMKYGNGKKPIQTQTLSGRLQKPRTNLMVGLIRDGQFHIVPLRGLTQLRPSMKHVNEYTQKLKAAAGPSNSSSGTSTPRGPIRAVQVTAKQNTEAPKVSTTHIVRATEEEEWVELDCRPERESESILKQLECPIEHQPNECAAVDEDYSFI

No constants are given. Whether binding was seen depends on the method and setting. In cells and extracts the contact can be indirect. These calls come from enrichment with a bait or labelling near it, and not all partners need be listed. Sequences can lack the tags named with a protein.
